Laboratory results taken from PubChem BioAssay AID2551 (National Center for Advancing Translational Sciences (NCATS), 2010).
Among all 310,000 compounds or so, about 17,000 (5.5%) were called active. The inconclusive results got no clear call from the source; some entries with a clear call stand among them for comparison. The call rests on the fitted dose curve; in most records, active means well fitted inhibition curve with a large enough effect; inconclusive means small, poorly fitted or top-dose-only effect, or effect the other way; inactive means no such curve, though single readings can be large or run the other way. Potencies beside an inconclusive call are fits to weak or partial responses and may not hold up.

By UniProt entry, the sequences of proteins in these tests, tags left out. Where a name states a change or a piece, a line headed by the entry shows the natural chain unless it says otherwise.
UniProt P51450: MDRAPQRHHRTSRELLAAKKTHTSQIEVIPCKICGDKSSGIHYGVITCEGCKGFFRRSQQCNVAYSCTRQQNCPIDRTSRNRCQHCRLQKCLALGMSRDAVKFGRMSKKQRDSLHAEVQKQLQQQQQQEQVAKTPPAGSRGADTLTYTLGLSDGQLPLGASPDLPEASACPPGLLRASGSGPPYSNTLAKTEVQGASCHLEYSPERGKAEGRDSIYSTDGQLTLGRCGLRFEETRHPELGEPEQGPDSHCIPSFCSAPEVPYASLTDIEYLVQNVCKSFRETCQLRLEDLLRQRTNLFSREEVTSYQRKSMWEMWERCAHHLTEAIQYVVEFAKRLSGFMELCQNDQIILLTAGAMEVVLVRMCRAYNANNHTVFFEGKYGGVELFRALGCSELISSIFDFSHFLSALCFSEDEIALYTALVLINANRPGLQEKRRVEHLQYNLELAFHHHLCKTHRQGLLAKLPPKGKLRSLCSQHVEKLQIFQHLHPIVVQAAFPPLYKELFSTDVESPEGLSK

Target: Nuclear receptor ROR-gamma (Mus musculus) (UniProt P51450)
Assay: qHTS for inhibitors of ROR gamma transcriptional activity; further: nearly all actives have a fitted effect of over 60% in size
Conditions: Drosophila S2 Gal4-RORgamma UAS-luciferase reporter, 20 h; series mostly up to 53.6 µM
Summary of the method: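 Compounds are pin-transferred onto Drosophila Schneider cells expressing a copper-inducible Gal4–ROR gamma transactivation domain fusion. After 1 hr, copper sulfate is added to 700 uM final; luciferase is read 20 hr later.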
Potency means the concentration at half of the fitted maximal effect.

Potency, inconclusive:
CN(C)c1cc[n+](/C(C(=S)Nc2ccc(SC(F)F)cc2)=C(/[O-])c2ccccc2)cc1 17.8 µM [inhibitor, single point]
CCN(CC)S(=O)(=O)c1ccc(C)c(C)c1 0.562 µM [inhibitor, single point]
COc1ccc2cc(C(N)=O)/c(=N/NC(=O)c3ccco3)oc2c1 7.94 µM [activator, partial curve, poor fit]
CCCNC(=O)c1ccccc1NC(=O)c1ccccc1N(C)S(=O)(=O)c1ccccc1 12.6 µM [activator, partial curve]
CC(C)c1ccc(NC(=O)C2CCN(S(=O)(=O)c3ccc4c(c3)NC(=O)CO4)CC2)cc1 11.2 µM [activator, partial curve]
COc1ccc(CNC(=O)c2cc(SC)ccc2Cl)cc1OC 6.31 µM [activator, partial curve]
Cc1ccc(C)[n+](CC(=O)c2ccc(-c3ccccc3)cc2)c1 35.5 µM [activator, single point]
O=C(COc1ccccc1C(=O)c1cnn(-c2ccccc2)c1)Nc1ccccc1 7.94 µM [activator, partial curve]
COc1ccccc1NC(=S)N1CCC(c2nc3ccccc3o2)CC1 20 µM [inhibitor, single point]
CC1CCN(C(=O)/C=C/c2ccc(C(C)(C)C)cc2)CC1 12.6 µM [activator, partial curve]
Cc1ccc(N=CC2=C(O)CC(c3ccco3)CC2=O)cc1 (centres undefined) 17.8 µM [activator, partial curve]
CC(C)Cn1c(=O)c(C(=O)NCc2ccccn2)c(O)c2ccccc21 0.316 µM [activator, full curve, poor fit]
CCc1nnc(NC(=O)CCN(c2cc(C)cc(C)c2)S(=O)(=O)c2ccc(Cl)cc2)s1 10 µM [activator, partial curve]

2 compounds drawn at random from those above, as already listed:
Potency, inconclusive:
CCN(CC)S(=O)(=O)c1ccc(C)c(C)c1 0.562 µM [inhibitor, single point]
COc1ccc(CNC(=O)c2cc(SC)ccc2Cl)cc1OC 6.31 µM [activator, partial curve]

Following part.

Potency, active:
COc1cccc(/C=N/NC(=O)CNC(=O)/C=C\c2ccccc2)c1O 2.51 µM
Cc1nn2c(NCc3ccccn3)cc(C(C)C)nc2c1-c1ccccc1 0.0891 µM
CCOC(=O)Cc1cc(=O)n2[nH]c(C)c(-c3ccccc3)c2n1 12.6 µM

Potency, inactive:
CCn1c(=O)cc(OCC(=O)N2CCN(C(=O)c3ccco3)CC2)c2ccccc21
Cc1cc(C(=O)COc2ccccc2C(N)=O)c(C)n1C
COc1ccccc1OCc1ccc(C(=O)NN)o1
